The record followed here is PMC12037410, “Pharmacological targeting of BMAL1 modulates circadian and immune pathways” (Nature Chemical Biology, 2025).

Chains of the proteins cited; added tags and fusions are not shown.
UniProt O00327: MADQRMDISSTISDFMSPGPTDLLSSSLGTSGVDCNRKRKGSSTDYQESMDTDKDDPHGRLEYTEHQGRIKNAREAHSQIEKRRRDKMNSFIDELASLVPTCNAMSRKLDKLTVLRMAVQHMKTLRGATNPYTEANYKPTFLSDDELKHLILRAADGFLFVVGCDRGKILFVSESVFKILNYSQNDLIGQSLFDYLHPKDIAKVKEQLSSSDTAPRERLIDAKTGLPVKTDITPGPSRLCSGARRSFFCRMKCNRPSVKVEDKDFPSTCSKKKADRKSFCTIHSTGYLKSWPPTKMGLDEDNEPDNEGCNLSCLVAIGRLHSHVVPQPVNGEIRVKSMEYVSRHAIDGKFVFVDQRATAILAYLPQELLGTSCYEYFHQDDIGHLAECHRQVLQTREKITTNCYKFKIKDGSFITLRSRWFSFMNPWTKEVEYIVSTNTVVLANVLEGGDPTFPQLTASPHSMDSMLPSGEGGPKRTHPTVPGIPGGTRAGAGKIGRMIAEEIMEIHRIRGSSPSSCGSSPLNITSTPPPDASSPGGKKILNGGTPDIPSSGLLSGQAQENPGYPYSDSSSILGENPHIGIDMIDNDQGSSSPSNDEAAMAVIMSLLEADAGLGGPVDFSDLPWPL

No constants are given. Whether binding was seen depends on the method and setting. In cells and extracts the contact can be indirect. Some results given as binding are weak or reduced against the parent protein; the word gives no strength. Where a sequence is shown, tags or fusion partners need not be part of it.

This assay has as its target T1, Full-length human CLOCK with a C-terminal Myc or Flag tag (human) (UniProt O15516).
T1 sequence: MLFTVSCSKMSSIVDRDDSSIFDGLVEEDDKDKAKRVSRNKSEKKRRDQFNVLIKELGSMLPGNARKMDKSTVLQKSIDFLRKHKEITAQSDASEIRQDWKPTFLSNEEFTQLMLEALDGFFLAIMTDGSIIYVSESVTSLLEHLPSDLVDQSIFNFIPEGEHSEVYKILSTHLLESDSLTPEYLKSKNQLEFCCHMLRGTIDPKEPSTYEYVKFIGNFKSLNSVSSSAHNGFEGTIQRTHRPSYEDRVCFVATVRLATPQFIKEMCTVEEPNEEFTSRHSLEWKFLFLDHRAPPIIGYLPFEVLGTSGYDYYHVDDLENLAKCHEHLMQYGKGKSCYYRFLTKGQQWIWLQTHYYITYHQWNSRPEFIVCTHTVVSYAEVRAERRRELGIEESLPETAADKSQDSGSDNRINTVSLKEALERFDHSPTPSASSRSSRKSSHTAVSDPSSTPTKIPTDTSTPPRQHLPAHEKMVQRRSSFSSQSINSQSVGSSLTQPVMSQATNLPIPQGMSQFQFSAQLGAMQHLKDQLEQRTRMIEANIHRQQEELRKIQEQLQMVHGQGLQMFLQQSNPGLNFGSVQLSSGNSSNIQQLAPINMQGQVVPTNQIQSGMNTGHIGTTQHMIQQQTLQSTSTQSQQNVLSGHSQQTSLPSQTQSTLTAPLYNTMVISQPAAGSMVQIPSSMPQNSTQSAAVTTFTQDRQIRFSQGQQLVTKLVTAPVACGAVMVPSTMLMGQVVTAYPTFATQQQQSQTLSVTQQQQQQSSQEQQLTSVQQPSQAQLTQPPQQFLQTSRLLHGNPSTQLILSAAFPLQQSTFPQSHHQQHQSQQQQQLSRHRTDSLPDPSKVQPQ
Nature of the assay: co-IP; Myc- and Flag-tagged BMAL1 and CLOCK transiently expressed in U2OS cells treated with 0.1% DMSO or 1-100 uM CCM for about 2.5 h; lysate by sonication in 20 mM HEPES pH 7.5, 100 mM NaCl, 1 mM EDTA, 3% glycerol, 0.1% Tween 20, 0.05% Triton X-100, 1 mM DTT; magnetic Flag beads, 2.5 h in a cold room; western blot.

“Full-length human BMAL1 with a C-terminal Myc or Flag tag (from UniProt O00327 1-626)”: the binding result is recorded as “binds”.
